From publication PMC7206020 come the findings set out here.

By UniProt entry, the sequences of proteins in these tests, tags left out.
UniProt P47811: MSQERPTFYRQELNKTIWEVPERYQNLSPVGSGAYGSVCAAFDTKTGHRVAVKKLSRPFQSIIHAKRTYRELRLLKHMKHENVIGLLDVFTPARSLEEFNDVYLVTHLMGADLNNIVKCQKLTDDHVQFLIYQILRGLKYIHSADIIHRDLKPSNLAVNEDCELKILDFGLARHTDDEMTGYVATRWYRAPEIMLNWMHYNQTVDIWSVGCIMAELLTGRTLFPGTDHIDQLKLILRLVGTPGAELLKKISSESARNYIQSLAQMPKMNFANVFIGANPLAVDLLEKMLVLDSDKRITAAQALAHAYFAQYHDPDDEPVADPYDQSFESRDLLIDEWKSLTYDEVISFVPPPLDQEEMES

Test [1] addresses p38MAPKα, HA-tagged wildtype, expressed from pcDNA3.1-HA-p38 (WT) (UniProt P47811). As to the kind of experiment: co-IP; Figure S5; cells, constructs and antibodies not shown.
Test [2] shares this target. Kind of test: co-IP; lysates of 293T cells transfected with control, p38α and/or Prmt7 vectors, precipitated with anti-p38α or Prmt7 antibodies and immunoblotted. Background: In western blotting, separated proteins are transferred to a membrane and probed.
Test [3] has as its target p38MAPKα, endogenous in C2C12 myoblasts (mouse (endogenous in C2C12)) (UniProt P47811). As to the kind of experiment: co-IP; C2C12 lysates from a differentiation time course precipitated with anti-p38α antibodies.

Results are given in words; binding and its absence hold for the method and conditions named. In cells and extracts the contact can be indirect. Some entries that bind do so weakly or less than the wild type. For part of these data: Where a sequence is shown, tags or fusion partners need not be part of it.

B1: Protein arginine methyltransferase 7 (Prmt7), HA-tagged, expressed from pcDNA3.1-HA-Prmt7 (enzyme, UniProt Q922X9 1-692)
chain: MKVFCGRANPTTGSLEWLEEDEHYDYHQEIARSSYADMLHDKDRNIKYYQGIRAAVSRVKDRGQKALVLDIGTGTGLLSMMAVTAGADFCYAIEVFKPMAEAAVKIVERNGFSDKIKVINKHSTEVTVGPDGDLPCRANILITELFDTELIGEGALPSYEHAHKHLVQEDCEAVPHRATVYAQLVESRRMWSWNKLFPVRVRTSLGEQVIVPPSELERCPGAPSVCDIQLNQVSPADFTVLSDVLPMFSVDFSKQVSSSAACHSRQFVPLASGQAQVVLSWWDIEMDPEGKIKCTMAPFWAQTDPQELQWRDHWMQCVYFLPQEEPVVQGSPRCLVAHHDDYCVWYSLQRTSPDENDSAYQVRPVCDCQAHLLWNRPRFGEINDQDRTDHYAQALRTVLLPGSVCLCVSDGSLLSMLAHHLGAEQVFTVESSVASYRLMKRIFKVNHLEDKISVINKRPELLTAADLEGKKVSLLLGEPFFTTSLLPWHNLYFWYVRTSVDQHLAPGAVVMPQAASLHAVIVEFRDLWRIRSPCGDCEGFDVHIMDDMIKHSLDFRESREAEPHPLWEYPCRSLSKPQEILTFDFQQPIPQQPMQSKGTMELTRPGKSHGAVLWMEYQLTPDSTISTGLINPAEDKGDCCWNPHCKQAVYFLSTTLDLRVPLNGPRSVSYVVEFHPLTGDITMEFRLADTLS
Take B1: the binding result in test [1] and in test [2] was “binds” each time.

B2: Protein arginine methyltransferase 7 (Prmt7), endogenous in C2C12 myoblasts (enzyme, UniProt Q922X9 1-692)
chain: MKVFCGRANPTTGSLEWLEEDEHYDYHQEIARSSYADMLHDKDRNIKYYQGIRAAVSRVKDRGQKALVLDIGTGTGLLSMMAVTAGADFCYAIEVFKPMAEAAVKIVERNGFSDKIKVINKHSTEVTVGPDGDLPCRANILITELFDTELIGEGALPSYEHAHKHLVQEDCEAVPHRATVYAQLVESRRMWSWNKLFPVRVRTSLGEQVIVPPSELERCPGAPSVCDIQLNQVSPADFTVLSDVLPMFSVDFSKQVSSSAACHSRQFVPLASGQAQVVLSWWDIEMDPEGKIKCTMAPFWAQTDPQELQWRDHWMQCVYFLPQEEPVVQGSPRCLVAHHDDYCVWYSLQRTSPDENDSAYQVRPVCDCQAHLLWNRPRFGEINDQDRTDHYAQALRTVLLPGSVCLCVSDGSLLSMLAHHLGAEQVFTVESSVASYRLMKRIFKVNHLEDKISVINKRPELLTAADLEGKKVSLLLGEPFFTTSLLPWHNLYFWYVRTSVDQHLAPGAVVMPQAASLHAVIVEFRDLWRIRSPCGDCEGFDVHIMDDMIKHSLDFRESREAEPHPLWEYPCRSLSKPQEILTFDFQQPIPQQPMQSKGTMELTRPGKSHGAVLWMEYQLTPDSTISTGLINPAEDKGDCCWNPHCKQAVYFLSTTLDLRVPLNGPRSVSYVVEFHPLTGDITMEFRLADTLS
As for B2, the binding result in test [3] is “binds”.
